According to PMC12186120:
These are yes or no findings as the source states them, for the method shown. Binding seen in cells or lysates may run through a third protein. Some entries that bind do so weakly or less than the wild type. Tags and fused reporters may be left off the sequences shown. Blank lines part the entries; values can stand above or below the molecule they belong to.

The chains behind the UniProt entries cited, without tags or fusion partners.
UniProt P61224: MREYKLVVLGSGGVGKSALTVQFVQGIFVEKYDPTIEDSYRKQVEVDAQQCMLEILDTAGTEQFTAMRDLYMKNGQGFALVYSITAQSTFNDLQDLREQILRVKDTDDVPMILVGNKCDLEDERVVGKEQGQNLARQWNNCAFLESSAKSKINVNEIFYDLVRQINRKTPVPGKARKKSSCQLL

Tests used:
GST-RalGDS = target: T1, GST-RalGDS (UniProt Q12967); assay: pull-down; 20 ug GST-RalGDS added to lysate of control or Rab40-TKO MDA-MB-231 cells stably expressing GFP-Rap1b; 60 min room temperature, then glutathione beads 30 min; washes 20 mM Hepes pH 7.4, 300 mM NaCl, 0.1% Triton X-100; western blot; only the target purified
T1 sequence: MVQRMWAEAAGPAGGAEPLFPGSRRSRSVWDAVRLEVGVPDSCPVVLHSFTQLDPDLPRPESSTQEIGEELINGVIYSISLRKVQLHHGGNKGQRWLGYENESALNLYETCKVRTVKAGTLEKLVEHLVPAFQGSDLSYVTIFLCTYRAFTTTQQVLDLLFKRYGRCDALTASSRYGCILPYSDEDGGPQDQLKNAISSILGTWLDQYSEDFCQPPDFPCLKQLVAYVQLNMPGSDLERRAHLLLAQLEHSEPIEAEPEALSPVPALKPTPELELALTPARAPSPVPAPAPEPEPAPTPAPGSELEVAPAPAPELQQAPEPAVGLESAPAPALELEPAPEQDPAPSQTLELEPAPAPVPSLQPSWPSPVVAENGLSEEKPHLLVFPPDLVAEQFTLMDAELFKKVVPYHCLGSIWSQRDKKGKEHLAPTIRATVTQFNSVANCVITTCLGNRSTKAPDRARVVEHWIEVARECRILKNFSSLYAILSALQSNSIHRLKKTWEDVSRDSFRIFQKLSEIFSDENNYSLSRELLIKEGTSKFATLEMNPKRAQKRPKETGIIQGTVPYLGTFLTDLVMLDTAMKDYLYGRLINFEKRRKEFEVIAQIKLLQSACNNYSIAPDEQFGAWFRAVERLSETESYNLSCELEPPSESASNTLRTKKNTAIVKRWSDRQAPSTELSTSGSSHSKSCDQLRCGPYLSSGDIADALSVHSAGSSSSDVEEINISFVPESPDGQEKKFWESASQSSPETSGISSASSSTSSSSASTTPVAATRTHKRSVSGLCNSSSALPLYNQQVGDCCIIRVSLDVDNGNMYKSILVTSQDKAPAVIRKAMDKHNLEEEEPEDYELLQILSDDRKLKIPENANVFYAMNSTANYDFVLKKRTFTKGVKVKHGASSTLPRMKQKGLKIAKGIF

GST-Rap1b = GST-Rap1b (UniProt P61224); assay: pull-down; 10 ug GST-Rap1b added to MDA-MB-231 lysate (400 uL at 3 mg/mL) locked with GppCp or GDP (5 mM EDTA, 5 mM nucleotide, 15 mM MgCl2); 1 h room temperature, then GST beads 30 min; washes 20 mM Hepes pH 7.4, 300 mM NaCl, 0.1% Triton X-100; anti-FLAG western blot; only the target purified

binding (GST-RalGDS): binds
Molecule: GFP-Rap1b (from UniProt P61224 1-184)

binding (GST-Rap1b): binds
B1: FLAG-Rab40b-WT (protein, UniProt Q12829 1-278)
chain: MSALGSPVRAYDFLLKFLLVGDSDVGKGEILASLQDGAAESPYGHPAGIDYKTTTILLDGRRVKLQLWDTSGQGRFCTIFRSYSRGAQGVILVYDIANRWSFDGIDRWIKEIDEHAPGVPKILVGNRLHLAFKRQVPTEQAQAYAERLGVTFFEVSPLCNFNITESFTELARIVLLRHGMDRLWRPSKVLSLQDLCCRAVVSCTPVHLVDKLPLPIALRSHLKSFSMANGLNARMMHGGSYSLTTSSTHKRSSLRKVKLVRPPQSPPKNCTRNSCKIS
